Source: PubChem BioAssay AID504808 (Drosophila RNAi Screening Center, 2011)
Screen: 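Chromatin factors that keep E2F targets switched off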 (primary screen). System: Drosophila S2 cells. Reagents: long dsRNA against Drosophila genes. Read-out: 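Dual luciferase plate measurements; E2F-specific signal taken as firefly over Renilla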. Direction: E2F firefly: higher = more E2F reporter activity; Renilla normaliser: higher = more normaliser reporter signal. Hit rule: 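Called active if the normalised E2F reporter went up by over 50%; the cutoff is arbitrary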.
The screen tested about 21,000 reagents; shown is a random part of those with a known target gene and a result. Of all reagents, 18 (0.084%) were called active. 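Raw counts without plate normalisation, one of two replicates; the ratio scores behind the calls were not deposited.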 A plus sign joins genes that one reagent is predicted to hit. Not stated in the record: the amount of reagent, the time to read-out.

The opening 2 entries, ahead of the listing:
Target gene | amplicon | E2F firefly, rep 1 | Renilla normaliser, rep 1 | Call
CG18418 | DRSC08535 | 75957 | 3933 | inactive
CG13794 | DRSC02298 | 1.60e5 | 4932 | inactive

The list itself, from the first entry:
Target gene | amplicon | E2F firefly, rep 1 | Renilla normaliser, rep 1 | Call
CG18418 | DRSC08535 | 75957 | 3933 | inactive
CG13794 | DRSC02298 | 1.60e5 | 4932 | inactive
CkIIalpha | DRSC11946 | 1.20e5 | 7596 | inactive
Pfdn4 | DRSC09761 | 89113 | 3672 | inactive
CG14958 | DRSC08417 | 85016 | 3615 | inactive
CG17572 | DRSC02629 | 1.05e5 | 4174 | inactive
Gr22f | DRSC00076 | 1.39e5 | 6823 | inactive
bib | DRSC03496 | 75714 | 3428 | inactive
Lamtor4 | DRSC08436 | 93528 | 4071 | inactive
CG10185 | DRSC14205 | 1.12e5 | 6235 | inactive
CG3156 | DRSC18503 | 1989 | 764 | inactive
CG4000 | DRSC15535 | 1.25e5 | 6040 | inactive
CG17994 | DRSC04877 | 1.12e5 | 4664 | inactive
PCID2 | DRSC10822 | 79148 | 3353 | inactive
CR30029 | DRSC06724 | 98408 | 4619 | inactive
CG12531 | DRSC19466 | 1.38e5 | 6732 | inactive
mEFTs | DRSC02953 | 81822 | 3247 | inactive
SMC6 | DRSC15829 | 1.09e5 | 5241 | inactive
CG5984 | DRSC15930 | 1.12e5 | 5794 | inactive
Nhe3 | DRSC03380 | 1.48e5 | 4947 | inactive
CG6276 | DRSC16007 | 70948 | 3282 | inactive
Grx3 | DRSC02966 | 87688 | 3512 | inactive
CG1575 | DRSC18069 | 7977 | 760 | inactive
Rilpl | DRSC18494 | 1932 | 1032 | inactive
CG31051 | DRSC15034 | 1753 | 920 | inactive
Gnptab | DRSC07057 | 1.46e5 | 4987 | inactive
Gfat2 | DRSC14598 | 1816 | 980 | inactive
PheRS-m | DRSC05915 | 3088 | 185 | inactive
dwg | DRSC18766 | 2007 | 984 | inactive
CG8509 | DRSC20109 | 7559 | 660 | inactive
CG40245 (retired record) | DRSC21012 | 88497 | 3521 | inactive
Peritrophin-A | DRSC20570 | 1.64e5 | 6160 | inactive
CG14569 | DRSC11730 | 1.48e5 | 6734 | inactive
Vajk3 | DRSC01883 | 78218 | 3326 | inactive
CG33325 | DRSC12699 | 78941 | 3740 | inactive
CG15522 | DRSC15059 | 1.14e5 | 6564 | inactive
DIP-iota | DRSC02140 | 1.49e5 | 5370 | inactive
CG7059 | DRSC16187 | 1.60e5 | 7207 | inactive
CG6972 | DRSC16159 | 98790 | 6331 | inactive
Hap40 | DRSC20085 | 7626 | 664 | inactive
CG42717 | DRSC09411 | 1.31e5 | 4154 | inactive
Hmt-1 | DRSC15555 | 77851 | 3832 | inactive
CG33155 + mRpL53 | DRSC05461 | 1.38e5 | 4622 | inactive
CG33177 | DRSC19949 | 1.40e5 | 6271 | inactive
spartin | DRSC12187 | 1.37e5 | 6180 | inactive
CG10051 | DRSC05959 | 1.60e5 | 5677 | inactive
Inx7 + cm | DRSC18753 | 7822 | 772 | inactive
CG14626 | DRSC18631 | 46302 | 2901 | inactive
CG9098 | DRSC03136 | 77449 | 3722 | inactive
CG15023 | DRSC08477 | 88144 | 3712 | inactive
CG3600 (retired record) | DRSC18599 | 90943 | 5604 | inactive
CG8908 | DRSC07297 | 1.54e5 | 5080 | inactive
CG5708 | DRSC02881 | 1.45e5 | 4835 | inactive
Srp68 | DRSC10475 | 65080 | 3628 | inactive
wdp | DRSC04367 | 79806 | 3937 | inactive
Cpr60D | DRSC04492 | 1.06e5 | 4629 | inactive
Uch-L5 | DRSC11314 | 82862 | 3517 | inactive
CG8097 | DRSC20079 | 1.53e5 | 5679 | inactive
Gyg | DRSC03850 | 89964 | 5129 | inactive
Gyg | DRSC04556 | 1.03e5 | 4468 | inactive
CG6287 | DRSC02947 | 84717 | 3823 | inactive
CG11619 | DRSC09849 | 1.34e5 | 6377 | inactive
Ir20a | DRSC20506 | 1.27e5 | 6270 | inactive
mmd | DRSC19672 | 1.21e5 | 4599 | inactive
mmd | DRSC19673 | 2.25e5 | 6629 | inactive
mmd | DRSC20161 | 2.23e5 | 6660 | inactive
CG32511 (retired record) | DRSC20697 | 56221 | 3728 | inactive
Mbs | DRSC09414 | 1.31e5 | 3391 | inactive
Mbs | DRSC10525 | 72857 | 3345 | inactive
Mbs | DRSC10553 | 1.64e5 | 8761 | inactive
Prip | DRSC07044 | 2908 | 221 | inactive
CG11417 | DRSC18581 | 1810 | 688 | inactive
CG9727 | DRSC12585 | 73978 | 3241 | inactive
CAH5 | DRSC15372 | 1.20e5 | 6260 | inactive
Hpf1 | DRSC12202 | 67307 | 3797 | inactive
CG3565 | DRSC04389 | 80095 | 3927 | inactive
CG9109 | DRSC03139 | 97549 | 3362 | inactive
trp | DRSC17088 | 1.12e5 | 7201 | inactive
Use1 | DRSC10180 | 92416 | 4467 | inactive
CG13912 | DRSC08381 | 1.06e5 | 4644 | inactive
xit | DRSC18364 | 8107 | 760 | inactive
CG5440 | DRSC00685 | 1.73e5 | 5960 | inactive
Gpxl | DRSC06538 | 1.48e5 | 5226 | inactive
Rchy1 | DRSC02542 | 1.45e5 | 4692 | inactive
Cf2 | DRSC00744 | 1.10e5 | 136 | inactive
CoRest | DRSC19881 | 1.43e5 | 5633 | inactive
spab | DRSC07112 | 1.53e5 | 4819 | inactive
Cyp28c1 | DRSC20236 | 49510 | 4577 | inactive
CG15570 | DRSC18058 | 1.10e5 | 5934 | inactive
Mis12 | DRSC10299 | 1.11e5 | 4846 | inactive
mei-217 + mei-218 | DRSC20349 | 2.45e5 | 7510 | inactive
Sln | DRSC07133 | 92643 | 4488 | inactive
scrib | DRSC13774 | 72395 | 2598 | inactive
scrib | DRSC15809 | 1764 | 960 | inactive
scrib | DRSC17051 | 1.28e5 | 7011 | inactive
CG30428 | DRSC04041 | 1.44e5 | 5219 | inactive
Gyc88E | DRSC15547 | 1.07e5 | 5524 | inactive
TpnC73F | DRSC11307 | 1.48e5 | 8013 | inactive
tos | DRSC03624 | 68168 | 3422 | inactive
Cyp6t3 | DRSC07388 | 1.06e5 | 4250 | inactive
Dys + snoRNA:Me18S-A1374 | DRSC16232 | 1.18e5 | 7250 | inactive
CG32344 | DRSC08578 | 65296 | 3552 | inactive
Usp8 | DRSC15876 | 62441 | 2863 | inactive
Doc3 | DRSC10480 | 1.06e5 | 3537 | inactive
awd | DRSC16906 | 1.25e5 | 6283 | inactive
Obp58d | DRSC04162 | 1.14e5 | 4796 | inactive
CG3704 | DRSC18174 | 53682 | 4079 | inactive
CG3704 | DRSC18645 | 41738 | 3455 | inactive
